Patent US7544661 (NORTHWESTERN UNIVERSITY, dated 2009)
These are yes or no findings as the source states them, for the method shown. Some results given as binding are weak or reduced against the parent protein; the word gives no strength.

Sequences of proteins named here, by UniProt entry; tags and fusion partners are left off. A change or cut given only in a name is not applied to a line headed by its entry. A line that says so, or that is headed by a name, gives the form on record, which may keep a tag or linker. Residues count along the entry.
vascular endothelial growth factor (P15692, form named): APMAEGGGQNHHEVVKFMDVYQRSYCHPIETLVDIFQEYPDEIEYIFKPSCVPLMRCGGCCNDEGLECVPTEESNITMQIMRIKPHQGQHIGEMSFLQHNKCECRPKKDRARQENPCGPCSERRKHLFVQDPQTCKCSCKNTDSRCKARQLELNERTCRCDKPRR
UniProt P09038, residues 135-288: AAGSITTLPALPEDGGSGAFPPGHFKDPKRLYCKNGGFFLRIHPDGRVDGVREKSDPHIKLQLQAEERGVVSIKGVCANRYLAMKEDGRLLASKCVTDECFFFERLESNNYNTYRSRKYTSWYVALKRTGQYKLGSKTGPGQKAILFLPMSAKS

T1: neurotrophin-3 (UniProt P20783)
T1 sequence (looked up): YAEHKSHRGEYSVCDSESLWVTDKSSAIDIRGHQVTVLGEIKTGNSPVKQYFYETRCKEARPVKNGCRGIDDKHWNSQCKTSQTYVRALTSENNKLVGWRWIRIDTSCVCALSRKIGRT


These binders were tested against T1, neurotrophin-3 (assay: phage display; listed as binding sequence for NT-3).

binding	Binder
binds	YMRRSLS
binds	VVLYLPL
binds	TLGLGLH

The next lines start with the binder.

Binder	binding
SYFPSSA	binds
HTTEILH	binds
EARQSYS	binds
DEPQKAH	binds

What follows are binders tested against vascular endothelial growth factor (UniProt P15692) (assay: phage display, 12-mer kit; listed as binding sequence for VEGF; * denotes the strongest binders).

binding	Binder
binds	VSILSTIPNSMT
binds	PLTPSALLPIFE

Each binder was assayed against basic fibroblast growth factor (UniProt P09038) (assay: phage display; listed as binding sequence for FGF-2).

binding	Binder
binds	RMTQVPL
binds	AMLSHLS
binds	DFIQPYQ
binds	HSRHFHH
binds	AQVRSGD
binds	VYWSRIE
binds	KHPPTNW
binds	LSTPPLR
binds	PMHHHKH
binds	AMPQRPL

Each binder was assayed against vascular endothelial growth factor (UniProt P15692) (assay: phage display, 12-mer kit; listed as binding sequence for VEGF).

binding	Binder
binds	LPQKNTIQYEKM

The binders below were run against vascular endothelial growth factor (UniProt P15692) (assay: phage display, 7-mer kit; listed as binding sequence for VEGF).

binding	Binder
binds	YYTVHHM
binds	THAFRVM
binds	WPTWVNN
binds	WHWSLNH

The next lines start with the binder.

Binder	binding
LPYPHYH	binds
FTEPLAS	binds
ASLFSSN	binds
SWWAPFH	binds
LLTVSSY	binds
